The list shows a part of the results. Most entries show no effect beyond the scatter of the controls.
Compound: CN[C@@H]1C[C@H]2O[C@@](C)([C@@H]1OC)n1c3ccccc3c3c4c(c5c6ccccc6n2c5c31)C(=O)NC4 [staurosporine]
Experiment: log2 fold change of tryptic peptide abundance, ligand vs vehicle (limited proteolysis) (log2 ratio); higher = more trypsin-susceptible (destabilized)
Conditions: ligand concentration: 20 uM; sample: mouse liver crude lysate; replicate design: treated separately

Protein sequences, listed by entry. Tags and fused reporters are not part of them. Lines headed by an entry give the natural chain unless they say otherwise; changes in a name come on top.
UniProt Q6PAM1: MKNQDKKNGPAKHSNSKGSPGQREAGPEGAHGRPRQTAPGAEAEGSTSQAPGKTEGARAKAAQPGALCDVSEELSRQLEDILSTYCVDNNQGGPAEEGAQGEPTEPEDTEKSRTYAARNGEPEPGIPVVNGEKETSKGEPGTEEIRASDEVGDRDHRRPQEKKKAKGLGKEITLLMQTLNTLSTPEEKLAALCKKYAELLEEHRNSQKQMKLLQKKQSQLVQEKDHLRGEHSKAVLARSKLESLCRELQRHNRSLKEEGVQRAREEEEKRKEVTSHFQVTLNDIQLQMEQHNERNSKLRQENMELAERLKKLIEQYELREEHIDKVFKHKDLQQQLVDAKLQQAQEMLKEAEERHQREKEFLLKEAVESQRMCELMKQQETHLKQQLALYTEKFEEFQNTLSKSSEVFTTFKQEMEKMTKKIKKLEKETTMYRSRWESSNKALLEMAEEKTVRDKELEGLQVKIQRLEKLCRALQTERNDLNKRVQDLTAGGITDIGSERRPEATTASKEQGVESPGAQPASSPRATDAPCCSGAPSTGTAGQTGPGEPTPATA
UniProt Q6A085: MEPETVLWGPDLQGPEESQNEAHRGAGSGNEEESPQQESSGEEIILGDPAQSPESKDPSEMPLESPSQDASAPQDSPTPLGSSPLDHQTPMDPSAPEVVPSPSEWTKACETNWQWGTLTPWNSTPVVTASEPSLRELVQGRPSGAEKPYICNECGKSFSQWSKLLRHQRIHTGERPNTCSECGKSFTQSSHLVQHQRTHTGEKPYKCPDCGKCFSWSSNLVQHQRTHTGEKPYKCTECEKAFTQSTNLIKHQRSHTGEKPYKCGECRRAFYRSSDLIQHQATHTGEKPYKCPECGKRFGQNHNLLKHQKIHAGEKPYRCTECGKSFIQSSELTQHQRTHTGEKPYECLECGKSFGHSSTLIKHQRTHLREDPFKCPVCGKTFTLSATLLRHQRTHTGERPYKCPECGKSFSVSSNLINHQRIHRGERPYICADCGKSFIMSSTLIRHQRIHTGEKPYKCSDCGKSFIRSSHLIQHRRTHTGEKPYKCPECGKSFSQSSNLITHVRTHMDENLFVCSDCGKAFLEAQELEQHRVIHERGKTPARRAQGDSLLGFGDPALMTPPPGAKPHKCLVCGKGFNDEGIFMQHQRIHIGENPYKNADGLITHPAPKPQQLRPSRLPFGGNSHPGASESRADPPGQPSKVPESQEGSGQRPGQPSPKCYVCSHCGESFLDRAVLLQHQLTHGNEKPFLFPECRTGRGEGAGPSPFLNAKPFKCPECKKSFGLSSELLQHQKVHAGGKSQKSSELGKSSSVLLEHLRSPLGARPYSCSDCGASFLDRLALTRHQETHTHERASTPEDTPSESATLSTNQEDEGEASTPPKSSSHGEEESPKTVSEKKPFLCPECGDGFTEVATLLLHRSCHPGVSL
UniProt Q6PIP5: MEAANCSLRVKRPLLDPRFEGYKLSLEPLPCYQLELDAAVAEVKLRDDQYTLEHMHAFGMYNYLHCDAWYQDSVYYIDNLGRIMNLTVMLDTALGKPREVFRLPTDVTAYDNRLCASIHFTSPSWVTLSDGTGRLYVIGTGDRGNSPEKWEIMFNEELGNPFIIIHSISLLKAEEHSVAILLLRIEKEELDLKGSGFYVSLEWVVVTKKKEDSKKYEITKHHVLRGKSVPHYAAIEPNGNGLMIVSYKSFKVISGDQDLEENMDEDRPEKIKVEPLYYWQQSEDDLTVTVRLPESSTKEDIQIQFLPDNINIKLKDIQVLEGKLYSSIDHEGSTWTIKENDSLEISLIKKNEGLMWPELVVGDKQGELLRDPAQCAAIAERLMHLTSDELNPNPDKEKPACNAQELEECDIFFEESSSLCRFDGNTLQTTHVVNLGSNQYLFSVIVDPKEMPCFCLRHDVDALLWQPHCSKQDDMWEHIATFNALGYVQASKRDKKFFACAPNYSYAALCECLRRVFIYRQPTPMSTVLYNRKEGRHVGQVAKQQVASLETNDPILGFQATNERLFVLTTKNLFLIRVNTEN
UniProt Q6P1E1: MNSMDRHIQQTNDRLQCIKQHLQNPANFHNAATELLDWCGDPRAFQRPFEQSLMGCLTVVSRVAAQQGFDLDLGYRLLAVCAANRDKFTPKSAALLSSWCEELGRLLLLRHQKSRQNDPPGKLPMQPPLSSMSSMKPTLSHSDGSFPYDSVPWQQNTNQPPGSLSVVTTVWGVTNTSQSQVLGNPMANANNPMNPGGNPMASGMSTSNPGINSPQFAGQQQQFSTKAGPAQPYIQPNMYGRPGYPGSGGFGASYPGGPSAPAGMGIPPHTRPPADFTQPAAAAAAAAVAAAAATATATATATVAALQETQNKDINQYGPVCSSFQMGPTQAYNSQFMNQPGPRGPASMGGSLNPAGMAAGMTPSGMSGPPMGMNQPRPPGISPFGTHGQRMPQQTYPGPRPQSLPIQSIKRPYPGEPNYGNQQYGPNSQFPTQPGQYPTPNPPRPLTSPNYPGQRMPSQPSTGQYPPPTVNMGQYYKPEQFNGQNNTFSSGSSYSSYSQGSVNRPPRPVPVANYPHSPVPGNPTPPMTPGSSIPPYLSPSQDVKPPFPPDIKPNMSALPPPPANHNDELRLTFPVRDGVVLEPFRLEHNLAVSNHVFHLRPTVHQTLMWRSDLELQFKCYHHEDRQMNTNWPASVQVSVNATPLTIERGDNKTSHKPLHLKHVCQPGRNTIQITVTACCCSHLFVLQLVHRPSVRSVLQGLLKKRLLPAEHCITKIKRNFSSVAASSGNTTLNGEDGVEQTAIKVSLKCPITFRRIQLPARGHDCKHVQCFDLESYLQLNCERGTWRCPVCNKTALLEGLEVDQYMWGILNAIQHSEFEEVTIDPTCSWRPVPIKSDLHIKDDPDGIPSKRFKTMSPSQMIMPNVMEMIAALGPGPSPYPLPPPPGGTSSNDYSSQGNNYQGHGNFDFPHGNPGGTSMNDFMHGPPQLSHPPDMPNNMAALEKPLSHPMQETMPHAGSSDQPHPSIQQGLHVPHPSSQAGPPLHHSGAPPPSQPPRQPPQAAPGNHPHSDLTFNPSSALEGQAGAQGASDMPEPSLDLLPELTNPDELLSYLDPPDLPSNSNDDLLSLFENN
UniProt Q6P4T2: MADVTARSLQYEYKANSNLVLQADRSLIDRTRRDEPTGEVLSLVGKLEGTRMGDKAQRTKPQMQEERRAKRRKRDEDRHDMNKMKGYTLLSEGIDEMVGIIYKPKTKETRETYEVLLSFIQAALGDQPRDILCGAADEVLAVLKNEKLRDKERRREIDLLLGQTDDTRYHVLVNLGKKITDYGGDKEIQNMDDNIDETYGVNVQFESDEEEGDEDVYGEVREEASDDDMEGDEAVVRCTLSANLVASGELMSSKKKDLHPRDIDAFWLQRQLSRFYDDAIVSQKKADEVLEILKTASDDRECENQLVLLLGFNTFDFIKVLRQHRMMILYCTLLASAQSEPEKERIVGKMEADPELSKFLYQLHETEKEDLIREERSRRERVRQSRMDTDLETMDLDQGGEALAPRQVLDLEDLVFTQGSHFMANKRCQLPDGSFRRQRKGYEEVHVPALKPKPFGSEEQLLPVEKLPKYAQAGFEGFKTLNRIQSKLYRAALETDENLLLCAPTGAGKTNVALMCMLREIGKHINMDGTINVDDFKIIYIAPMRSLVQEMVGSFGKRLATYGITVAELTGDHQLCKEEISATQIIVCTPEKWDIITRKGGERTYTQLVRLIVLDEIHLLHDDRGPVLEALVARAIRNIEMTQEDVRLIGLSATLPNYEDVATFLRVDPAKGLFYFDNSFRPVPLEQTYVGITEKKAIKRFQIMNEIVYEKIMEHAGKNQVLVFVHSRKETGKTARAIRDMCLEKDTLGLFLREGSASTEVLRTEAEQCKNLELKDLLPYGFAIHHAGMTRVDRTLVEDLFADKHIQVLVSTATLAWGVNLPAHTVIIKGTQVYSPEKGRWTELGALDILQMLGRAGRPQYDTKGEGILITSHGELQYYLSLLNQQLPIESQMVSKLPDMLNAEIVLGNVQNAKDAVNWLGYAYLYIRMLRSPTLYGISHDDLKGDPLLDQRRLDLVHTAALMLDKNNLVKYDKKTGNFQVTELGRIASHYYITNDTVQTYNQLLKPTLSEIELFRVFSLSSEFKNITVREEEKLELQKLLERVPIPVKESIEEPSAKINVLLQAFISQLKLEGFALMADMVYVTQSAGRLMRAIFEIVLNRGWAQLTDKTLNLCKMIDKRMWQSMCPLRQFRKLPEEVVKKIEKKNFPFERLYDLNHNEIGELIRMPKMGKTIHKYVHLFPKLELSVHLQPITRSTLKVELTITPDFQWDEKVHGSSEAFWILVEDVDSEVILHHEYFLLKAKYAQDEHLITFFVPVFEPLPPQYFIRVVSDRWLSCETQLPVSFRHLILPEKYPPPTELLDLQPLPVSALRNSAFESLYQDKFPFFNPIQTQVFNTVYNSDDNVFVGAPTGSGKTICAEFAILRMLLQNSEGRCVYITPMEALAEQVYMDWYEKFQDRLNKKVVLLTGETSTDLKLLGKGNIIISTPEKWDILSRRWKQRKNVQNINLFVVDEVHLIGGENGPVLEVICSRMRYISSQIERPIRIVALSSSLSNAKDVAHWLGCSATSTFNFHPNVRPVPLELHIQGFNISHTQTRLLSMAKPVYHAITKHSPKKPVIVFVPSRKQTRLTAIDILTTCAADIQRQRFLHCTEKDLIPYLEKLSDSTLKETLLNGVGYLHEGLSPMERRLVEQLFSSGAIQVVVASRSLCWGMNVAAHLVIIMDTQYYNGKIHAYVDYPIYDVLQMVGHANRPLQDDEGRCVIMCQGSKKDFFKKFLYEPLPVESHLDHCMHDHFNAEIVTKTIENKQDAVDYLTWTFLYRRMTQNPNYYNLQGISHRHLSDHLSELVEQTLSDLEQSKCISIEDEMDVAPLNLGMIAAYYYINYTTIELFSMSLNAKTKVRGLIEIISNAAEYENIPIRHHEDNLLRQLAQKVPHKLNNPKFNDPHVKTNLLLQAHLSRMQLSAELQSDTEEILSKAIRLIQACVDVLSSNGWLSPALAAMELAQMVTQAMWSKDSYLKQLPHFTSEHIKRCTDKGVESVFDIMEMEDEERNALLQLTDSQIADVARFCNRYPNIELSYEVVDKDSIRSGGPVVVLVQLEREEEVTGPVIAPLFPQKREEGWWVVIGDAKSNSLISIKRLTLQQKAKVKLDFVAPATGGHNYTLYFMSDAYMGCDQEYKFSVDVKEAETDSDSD
UniProt Q6PEB4: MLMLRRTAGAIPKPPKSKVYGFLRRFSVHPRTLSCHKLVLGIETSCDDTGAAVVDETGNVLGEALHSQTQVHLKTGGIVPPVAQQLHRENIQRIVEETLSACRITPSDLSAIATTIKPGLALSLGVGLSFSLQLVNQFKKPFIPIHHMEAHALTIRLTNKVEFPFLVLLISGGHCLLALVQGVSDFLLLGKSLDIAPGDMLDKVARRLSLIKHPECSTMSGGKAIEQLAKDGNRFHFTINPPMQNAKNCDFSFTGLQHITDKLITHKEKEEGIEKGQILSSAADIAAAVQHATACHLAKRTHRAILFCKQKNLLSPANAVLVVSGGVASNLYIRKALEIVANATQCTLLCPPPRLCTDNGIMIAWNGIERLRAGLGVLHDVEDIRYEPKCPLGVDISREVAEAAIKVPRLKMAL
UniProt Q6P1H6: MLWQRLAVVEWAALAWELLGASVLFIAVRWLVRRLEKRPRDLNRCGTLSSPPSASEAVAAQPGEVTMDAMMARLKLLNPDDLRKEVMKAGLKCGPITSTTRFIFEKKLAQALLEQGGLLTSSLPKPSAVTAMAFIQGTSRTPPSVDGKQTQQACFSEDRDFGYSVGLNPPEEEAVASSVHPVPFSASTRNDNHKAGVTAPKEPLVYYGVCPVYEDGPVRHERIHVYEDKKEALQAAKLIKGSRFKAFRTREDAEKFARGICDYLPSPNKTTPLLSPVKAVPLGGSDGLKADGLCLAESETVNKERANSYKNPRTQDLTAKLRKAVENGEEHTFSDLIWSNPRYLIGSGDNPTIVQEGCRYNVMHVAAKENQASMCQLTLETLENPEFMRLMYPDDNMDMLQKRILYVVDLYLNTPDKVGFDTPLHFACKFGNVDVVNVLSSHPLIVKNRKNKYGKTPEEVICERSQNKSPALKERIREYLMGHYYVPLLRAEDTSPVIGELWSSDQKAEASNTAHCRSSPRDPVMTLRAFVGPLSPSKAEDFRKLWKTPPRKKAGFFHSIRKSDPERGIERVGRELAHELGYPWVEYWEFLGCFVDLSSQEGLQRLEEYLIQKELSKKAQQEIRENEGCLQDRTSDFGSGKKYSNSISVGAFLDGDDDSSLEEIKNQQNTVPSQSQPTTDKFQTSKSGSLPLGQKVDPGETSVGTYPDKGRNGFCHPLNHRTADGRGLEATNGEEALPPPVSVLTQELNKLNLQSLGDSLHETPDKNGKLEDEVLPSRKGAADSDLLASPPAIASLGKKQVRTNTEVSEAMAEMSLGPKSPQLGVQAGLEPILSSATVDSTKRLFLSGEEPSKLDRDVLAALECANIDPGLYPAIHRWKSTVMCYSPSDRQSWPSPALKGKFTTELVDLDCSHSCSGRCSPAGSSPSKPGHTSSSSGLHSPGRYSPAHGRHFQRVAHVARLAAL

| Target | log2 fold change |
| --- | --- |
| UniProt Q6PAM1 (peptide sequence: LQQAQEMLK, peptide start residue: 341) | 0.223 |
| UniProt Q6PDQ2 (peptide sequence: MLDLLEDFLEHEGYKYER, peptide start residue: 1071) | 0.969 |
| UniProt Q6A085 (peptide sequence: AFTQSTNLIK, peptide start residue: 241) | 0.475 |
| UniProt Q6P539 (peptide sequence: EQSLAMLSK, peptide start residue: 528) | 0.104 |
| UniProt Q6DFX2 (peptide sequence: VSLMRPQEGDEGR, peptide start residue: 465) | 0.136 |
| UniProt Q6PD29 (peptide sequence: GPAALGATGSR, peptide start residue: 524) | -0.174 |
| UniProt Q6NS86 (peptide sequence: GLHSQGLGR, peptide start residue: 559) | -0.123 |
| UniProt Q6PIP5 (peptide sequence: VKRPLLDPR, peptide start residue: 10) | 0.0638 |
| UniProt Q6DFV5 (peptide sequence: SLSGESLNGMVTK, peptide start residue: 118) | 0.644 |
| UniProt Q69ZZ9 (peptide sequence: ELIEGSRDDTTWVK, peptide start residue: 6683) | -0.481 |
| UniProt Q6NV66 (peptide sequence: TFACQDCGK, peptide start residue: 605) | 0.372 |
| UniProt Q6PDY2 (peptide sequence: AEDLNIAPR, peptide start residue: 51) | -0.254 |
| UniProt Q6DFV3 (peptide sequence: GSNLTVAPVVNSDNRR, peptide start residue: 550) | -0.294 |
| UniProt Q6DFV7 (peptide sequence: YYSVDDNQNK, peptide start residue: 90) | -0.179 |
| UniProt Q6Q6R3 (peptide sequence: FCLKCER, peptide start residue: 28) | -0.135 |
| UniProt Q6PGB8 (peptide sequence: IMAQIER, peptide start residue: 899) | 0.25 |
| UniProt Q6T264 (peptide sequence: QHQLLLDQQK, peptide start residue: 629) | -0.556 |
| UniProt Q6R891 (peptide sequence: AAGAPQVNSK, peptide start residue: 233) | -0.574 |
| UniProt Q6P1E1 (peptide sequence: LLPAEHCITK, peptide start residue: 706) | 0.094 |
| UniProt Q6NTA4 (peptide sequence: ATFLVISHYQCKEQR, peptide start residue: 209) | -0.21 |
| UniProt Q6P4T2 (peptide sequence: LYDLNHNEIGELIR, peptide start residue: 1153) | 0.323 |
| UniProt Q6P6J4 (peptide sequence: YKDGCDHIGEHR, peptide start residue: 139) | -0.178 |
| UniProt Q6PEB4 (peptide sequence: LRAGLGVLHDVEDIRYEPK, peptide start residue: 371) | 0.651 |
| UniProt Q6P1H6 (peptide sequence: VDPGETSVGTYPDKGR, peptide start residue: 696) | 0.248 |
| UniProt Q6PHU5 (peptide sequence: YSVLQQHAEADGVEALDSTSHAK, peptide start residue: 790) | -0.0762 |

2 records drawn at random from the list so far, as already listed:

| Target | log2 fold change |
| --- | --- |
| UniProt Q6PD29 (peptide sequence: GPAALGATGSR, peptide start residue: 524) | -0.174 |
| UniProt Q6P539 (peptide sequence: EQSLAMLSK, peptide start residue: 528) | 0.104 |

Reference: the supplement of paper PMC12819154, “High-throughput peptide-centric local stability assay extends protein–ligand identification to membrane proteins, tissues and bacteria” (Nature Structural & Molecular Biology, 2025)
